PubChem BioAssay AID493014 (National Center for Advancing Translational Sciences (NCATS), 2011)
The campaign covered roughly 340,000 compounds. About 170 (0.05%) were called active. Inconclusive means that the source gave no clear call. Such entries were picked first, then a sample of the others. The call rests on the fitted dose curve; in most records, active means well fitted inhibition curve with a large enough effect in the signal ratio, with a control signal flat (not every such curve was filed as active); inconclusive means small, poorly fitted or top-dose-only effect, or effect the other way, or a change in a side signal; inactive means flat fitted curve, though single readings scatter; the % refers to the signal ratio. Where the call is inconclusive, the potency comes from a doubtful curve fit.

Experiment: qHTS Assay to Find Inhibitors of Chronic Active B-Cell Receptor Signaling;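 on activity change, negative = inhibition: plate controls were basal doxycycline-induced cells for no effect and cells given 10 µM MG132 for full effect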
Settings: ABC-DLBCL IkBa-CBG/CBR reporter, luminescence ratio (green luciferase fused to IkBa over red control in TMD8 lymphoma cells), 4 h; activity change, negative = inhibition: at 46.1 µM (top of the series) unless noted
In short: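 Compounds up to 46 uM were incubated four hours with TMD8 cells whose green CBG68 luciferase is fused to IkappaBalpha; red CBR luminescence normalised the signal, and concentration-effect curves were fitted to fusion, red and ratio data.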
Potency means the concentration at half of the fitted maximal effect.

| Compound | activity change, negative = inhibition | Potency |
| --- | --- | --- |
| OC1CCN(Cc2cccc(Oc3ccccc3)c2)CC1 | inactive |  |
| CC(C)CCN(C(=O)c1csnn1)C(C(=O)NC1CCCC1)c1ccc(F)cc1 (configuration not stated) | inconclusive: -1.58% |  |
| O=C(c1ccc(F)cc1)C1CCN(Cc2cn[nH]c2-c2ccc(F)cc2)CC1 |  | inconclusive: 0.562 µM [falling, full curve, poor fit] |
| O=C(NCC1CCCO1)C(c1ccncc1)N(Cc1cccs1)C(=O)Cn1nnc(-c2ccc(F)cc2)n1 (configuration not stated) | inconclusive: -3.39% |  |
| Cc1cc(NS(=O)(=O)c2ccc(C3CCCCC3)cc2)no1 | inconclusive: -0.902% |  |
| Cc1cc(NC(=O)CSc2nnc(-c3ccoc3C)o2)no1 |  | inconclusive: 35.5 µM [falling, single point] |
| CS(=O)(=O)N1CCN(c2nnc(-c3ccccc3)c3ccccc23)CC1 | inactive |  |
| Clc1nn2cnnc2c2ccccc12 |  | inconclusive: 35.5 µM [rising, single point] |
| Cn1ccnc1SCC(=O)c1ccc(O)cc1 | inactive |  |
| Cc1ccc(C(=O)Cn2nnc3ccccc32)cc1 | inactive |  |
| CCC(=O)NC(c1ccc([N+](=O)[O-])cc1)c1c(O)ccc2ccccc12 (configuration not stated) | inconclusive: 5.73% |  |
| COc1cc2cc(C(=O)N/N=C/c3ccc(F)cc3)[nH]c2cc1OC |  | inconclusive: 22.4 µM [falling, single point] |
| COc1ccccc1N(O)C1CC(=O)N(c2ccc(Br)cc2)C1=O (configuration not stated) |  | inconclusive: 9.2 µM [falling, partial curve, poor fit] |
| CCOc1ccc(NC(=O)NCCN2CCN(c3ccccc3F)CC2)cc1 | inactive |  |
| O=[N+]([O-])c1cccc(-c2ccc(/C=N/NC(=S)Nc3ccccc3)o2)c1 | inconclusive: -4.3% |  |
| Cc1cc(=O)oc2cc(OCC(=O)Nc3nnc(C(C)C)s3)ccc12 | inconclusive: 3.45% |  |
| Cc1nn(-c2ccc(F)cc2)c(Cl)c1/C=C(\CCC(=O)O)c1nc2ccccc2s1 | inactive |  |
| O=C1CCn2nc(-c3ccc(Cl)cc3)cc2N1 | inconclusive: 1.48% |  |
| O=C(Cc1cccs1)Nc1nc(-c2ccc(F)c(F)c2)cs1 | inconclusive: -0.239% |  |
| CCCCc1oc2ccccc2c1C(=O)c1cc(I)c(OCCN(CC)CC)c(I)c1 | inactive |  |
| O=C(CN(C(=O)c1csnn1)c1ccc(Cl)cc1)NCCc1ccccc1 | inactive |  |

Fetched one by one from the list above (7):

| Compound | activity change, negative = inhibition | Potency |
| --- | --- | --- |
| Cc1ccc(C(=O)Cn2nnc3ccccc32)cc1 | inactive |  |
| Cn1ccnc1SCC(=O)c1ccc(O)cc1 | inactive |  |
| CCOc1ccc(NC(=O)NCCN2CCN(c3ccccc3F)CC2)cc1 | inactive |  |
| Clc1nn2cnnc2c2ccccc12 |  | inconclusive: 35.5 µM [rising, single point] |
| O=C1CCn2nc(-c3ccc(Cl)cc3)cc2N1 | inconclusive: 1.48% |  |
| O=C(Cc1cccs1)Nc1nc(-c2ccc(F)c(F)c2)cs1 | inconclusive: -0.239% |  |
| O=[N+]([O-])c1cccc(-c2ccc(/C=N/NC(=S)Nc3ccccc3)o2)c1 | inconclusive: -4.3% |  |

Next part:

| Compound | activity change, negative = inhibition | Potency |
| --- | --- | --- |
| CN(C)c1ccc(/C(=N\O)c2ccccc2)cc1 |  | inconclusive: 29.1 µM [falling, single point] |
| CCOC(=O)c1cc(-c2ccc(F)cc2)n(CCC(=O)NC2CCCCC2)c1C |  | inconclusive: 35.5 µM [falling, single point] |
| COCCCN=Cc1c(-c2ccccc2)[nH]n(-c2nc3ccccc3s2)c1=O | inconclusive: 2.13% |  |
| CC(C)(C)C(=O)Cn1ncc(Cl)c(Cl)c1=O |  | inconclusive: 35.5 µM [falling, single point] |
| C[C@H]1CN([C@@H](C)CO)C(=O)c2cccc(NC(=O)Nc3ccc(C(F)(F)F)cc3)c2O[C@@H]1CN(C)S(=O)(=O)c1ccccc1 | inconclusive: -2.58% |  |
| CC(C)c1cc(NCCOCCO)n2c(nc3ccccc32)c1C#N | inconclusive: 3.37% |  |
| Cc1ccc(S(=O)(=O)NC(=O)NC(C)Cc2ccccc2)cc1 (configuration not stated) |  | inconclusive: 2.82 µM [falling, single point] |
| CCOC(=O)c1c(-c2ccc(C)c(C)c2)csc1NC(=O)C1CC=CCC1C(=O)O (configuration not stated) |  | inconclusive: 29.1 µM [rising, single point] |
| CCOC(=O)C1CCN(c2c(-c3ccccc3)c3cc(Cl)ccc3[nH]c2=O)CC1 | inconclusive: -4.26% |  |
| COc1ccc2c(Cl)c(-c3nnc4n3CCCCC4)sc2c1 |  | inconclusive: 7.94 µM [falling, partial curve] |
| CC1Cc2ccccc2N1C(=O)COC(=O)CCc1nc2ccccc2c(=O)[nH]1 (configuration not stated) | inactive |  |
| CCOC(=O)C1=C(N)OC2=C(C(=O)CCC2)C1c1ccccc1OCC (configuration not stated) | inconclusive: 15% |  |
| O=C(CCN1CCC(c2ccccc2)C1)c1cccs1 (configuration not stated) | inactive |  |
| FC(F)(F)c1cnc(N2CCSCC2)c(Cl)c1 | inconclusive: 17.9% |  |
| N#Cc1cc(Sc2ccccn2)c([N+](=O)[O-])cc1C#N | inconclusive: -6.22% |  |
| COc1ccc(Nc2nc(N)nc(CSC(=S)N3CCN(c4ccccc4)CC3)n2)cc1 |  | inconclusive: 6.51 µM [falling, partial curve, poor fit] |
| COC(=O)CSc1ccc2nnc(-c3ccc(F)cc3)n2n1 |  | inconclusive: 35.5 µM [falling, partial curve, poor fit] |
| Cc1ccc([N+](=O)[O-])cc1S(=O)(=O)N1CCCN(C)CC1 | inconclusive: -1.92% |  |
| O=C(c1ccc(Cl)cc1[N+](=O)[O-])N(Cc1ccccc1)Cc1ccccc1 | inconclusive: 1.75% |  |
| Cc1noc(C(=O)NC2CCCCC2)c1Cl | inconclusive: -16.5% |  |
| CC(C)(CN1CCc2ccccc2C1)NS(=O)(=O)c1ccc(Cl)cc1 | inactive |  |

| Compound | activity change, negative = inhibition | Potency |
| --- | --- | --- |
| COC(=O)c1ccc(CNC(=O)c2ccc(NS(=O)(=O)c3ccc4[nH]c(=O)[nH]c4c3)cc2)cc1 | inconclusive: -18.6% |  |
| Cc1nc2nc[nH]n2c(=O)c1NC(=O)CC12CC3CC(CC(C3)C1)C2 | inconclusive: 9.29% |  |
| COc1ccc(S(=O)(=O)N2CCCC2CNC(=O)C(=O)NCc2ccco2)cc1 (configuration not stated) | inconclusive: -1.33% |  |
| CCN(CC)c1ccc(/C=N/NC(=O)c2ccco2)c(O)c1 |  | inconclusive: 35.5 µM [falling, single point] |
| CCOc1ccc(CCNC(=O)CCC(=O)N2CCOc3ccccc32)cc1OCC | inconclusive: -14.3% |  |
| COc1ccc2c(c1)CC/C(=C\c1ccc(OC)c(Cn3nc(C)cc3C)c1)C2=O |  | inconclusive: 29.1 µM [falling, single point] |
| Cc1cccc(C(=O)n2c(=S)nc3ccccn32)c1 |  | inconclusive: 14.6 µM [falling, partial curve] |
| CCOC(=O)C1CCN(C(=O)c2cc(COc3ccc(F)cc3F)on2)CC1 | inconclusive: -29.5% |  |
| CCN1CCN(c2ccc(S(=O)(=O)N3CCOCC3)cc2NC(=O)C(C)Oc2ccc(Cl)cc2)CC1 (configuration not stated) | inactive |  |
| Cc1nc(SCC(=O)NC2CCCC2)c2c(C)c(C)sc2n1 | inactive |  |
| Nc1ccccc1SC/C=C/CSc1ccccc1N | inconclusive: 6.05% |  |
| C=CCNC(=O)NC(=O)COC(=O)c1nc2nccc(C)n2n1 | inactive |  |
| Cc1cccc(-n2ncc3c(NCCCn4ccnc4)ncnc32)c1 |  | inconclusive: 3.26 µM [activator, partial curve, poor fit] |
| Cn1c(=O)[nH]c(=O)c2c1[nH]c(=S)n2CCCc1ccccc1 | inactive |  |
| COc1ccc(O)c(/C=N/Nc2nc3ccccc3[nH]2)c1 |  | inconclusive: 17.8 µM [falling, single point] |
| COc1ccccc1NC(CC(=O)c1ccccc1)C(=O)OCC(=O)c1ccc(C)c(C)c1 (configuration not stated) |  | inconclusive: 23.1 µM [falling, partial curve] |
| COc1ccc(C(=O)OCC(=O)NCC2CCCCC2)cc1F | inactive |  |
| Cc1ccc(S(=O)(=O)N2CCN(C(=O)c3cc(S(=O)(=O)N(C)C)ccc3N3CCCC3)CC2)c(C)c1 | inactive |  |
| O=C(CN1C(=O)CCS(=O)(=O)c2ccccc21)Nc1ccc(Cl)cc1 | inactive |  |
| O=C(Nc1ccc(N2CCN(C(=O)c3ccccc3)CC2)c(Cl)c1)c1ccco1 | inconclusive: -24.3% |  |
| COc1ccc(Cn2c(O)c(/C=N/NC(=O)c3cccnc3)c3ccccc3c2=O)cc1 |  | inconclusive: 20 µM [falling, partial curve] |

| Compound | activity change, negative = inhibition | Potency |
| --- | --- | --- |
| Nc1nc2ccccc2n1/N=C/c1ccc(-c2ccccc2)o1 | inconclusive: -6.31% |  |
| CCOC(=O)C1CCCN(S(=O)(=O)Cc2ccccc2Cl)C1 (configuration not stated) | inactive |  |
| Cc1cc(C(=O)CCC(=O)NCC(=O)Nc2c(C)cccc2C)c(C)s1 | inactive |  |
| Cc1ccccc1N=C1NC(=O)C(CO)(CO)S1 | inactive |  |
| COc1ccc(C)cc1NC(=O)NCc1ccc(F)cc1 | inconclusive: 3.13% |  |
| Cn1c(C(=O)NC2CCCCCC2)cc2c(=O)n(C)c3ccccc3c21 | inactive |  |
| CC(C)C[C@@H](C)C(=O)N(Cc1ccccc1)c1ccccc1 | inconclusive: 3.74% |  |
| O=C(O)c1ccc2c(=O)[nH]c(CCl)nc2c1 | inconclusive: -14.3% |  |
| CCCCn1nc(NC(=O)c2cccs2)c2cc3cc(OC)ccc3nc21 | inconclusive: 4.46% |  |
| CC(C)CNS(=O)(=O)c1ccc(NC(=O)Cn2nc(-c3ccc(F)cc3)ccc2=O)cc1 | inactive |  |
| CCN(CC)C(=O)Cn1cc(C(=O)C(=O)N2CCN(c3ccc([N+](=O)[O-])cc3)CC2)c2ccccc21 | inactive |  |
| COc1ccccc1CC(=O)Nc1cccc(C(=O)Nc2nccs2)c1 | inconclusive: 17.1% |  |
| Cn1c(N)c(C(=O)NCc2ccccc2)sc1=S | inconclusive: 4.34% |  |
| O=C(NC(=S)NCC1CCCO1)c1ccc([N+](=O)[O-])cc1 (configuration not stated) | inactive |  |
| Cc1ccc(S(=O)(=O)N2CCN(Cc3nc4ccccc4[nH]3)CC2)cc1C | inconclusive: -10.8% |  |
| O=C1C([N+](=O)[O-])=C(O)c2cccc3cccc1c23 |  | inconclusive: 35.5 µM [falling, single point] |
| Cc1ccc(Nc2c(-c3ccc(N4CCOCC4)cc3)nc3cnccn23)cc1 | inactive |  |
| COc1ccc(/C=C/CN2CCCC(CO)(Cc3cccc(Cl)c3)C2)cc1 (configuration not stated) | inconclusive: -4.08% |  |
| COc1ccc2c(c1)C(=O)[C@@H](OC(=O)NCc1ccc3c(c1)OCO3)[C@H](c1ccc(OC)c(Br)c1)O2 | inactive |  |
